# Measurements: the supplement of paper PMC8728848
# This is one part of the list.
# B1: SRS6 (Toxoplasma gondii), Q9NH12 (protein)
# chain: MARTGSMQQRRGGFQTTARMLMAVCVSGVLLLSSGPSSANKLTEGQQNQNSGPGAATQEGPTIEGAVAKCVLKTTAAENGSSRAKNTTGLTLSKENLVVSLQCSGEKNAIVPKDQKKVCSAAPNAKVADCKGADTDKQVTLKSLLGTSGDIQWEKTIVSTDNKGEVMTLKIKESELPLFDKAFFVGCEEDKAQTRTSQATECKVNVSVKARPSTVGENNVVTCAYGKDSNPRPLEVEMSADNDTLTIDCGTDGSLKPTKYTEEFCVTDNSQLESCTTKKFSEILPTFLPSWWVSDSQNGSAKLTIPESGFPEEQQQFRLGCVPKKTTQSPQANPSVKTEKEEGAQNTDASTSNCSVIVTVKASNFSSLASSIAPTAAVAGGAAALTGFLVGSF
# What was measured:
# Test in all cases: glycan array binding signal (z-score within array); higher = stronger binding
# Conditions in all cases: glycan notation: IUPAC condensed, linker removed
# Fuc(a1-2)Gal = target: Fuc(a1-2)Gal
# In short: (§1)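 Columns mapping to the same glycan were averaged after glycan names were converted to IUPAC-condensed notation. The data come from 3228 arrays in the Consortium for Functional Glycomics database, limited to those with an available protein sequence. Binding is reported as a within-array Z-score averaged across arrays of one protein sequence and across linkers.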
# Fuc(a1-2)Gal(b1-3)GalNAc = target: Fuc(a1-2)Gal(b1-3)GalNAc
# In short: as §1
# [1] = target: Fuc(a1-2)Gal(b1-3)GalNAc(a1-3)[Fuc(a1-2)]Gal(b1-4)Glc
# In short: as §1
# [2] = target: Fuc(a1-2)Gal(b1-3)GalNAc(a1-3)[Fuc(a1-2)]Gal(b1-4)GlcNAc
# In short: as §1
# [3] = target: Fuc(a1-2)Gal(b1-3)GalNAc(b1-3)Gal
# In short: as §1
# [4] = target: Fuc(a1-2)Gal(b1-3)GalNAc(b1-3)Gal(a1-4)Gal(b1-4)Glc
# In short: as §1
# [5] = target: Fuc(a1-2)Gal(b1-3)GalNAc(b1-4)[Neu5Ac(a2-3)]Gal(b1-4)Glc
# In short: as §1
# Fuc(a1-2)Gal(b1-3)GlcNAc = target: Fuc(a1-2)Gal(b1-3)GlcNAc
# In short: as §1
# [6] = target: Fuc(a1-2)Gal(b1-3)GlcNAc(b1-2)Man(a1-3)[Fuc(a1-2)Gal(b1-3)GlcNAc(b1-2)Man(a1-6)]Man(b1-4)GlcNAc(b1-4)GlcNAc
# In short: as §1
# [7] = target: Fuc(a1-2)Gal(b1-3)GlcNAc(b1-3)Gal(b1-4)Glc
# In short: as §1
# [8] = target: Fuc(a1-2)Gal(b1-3)GlcNAc(b1-3)[Fuc(a1-3)[Gal(b1-4)]GlcNAc(b1-6)]Gal(b1-4)Glc
# In short: as §1
# [9] = target: Fuc(a1-2)Gal(b1-3)[Fuc(a1-4)]GlcNAc
# In short: as §1
# [10] = target: Fuc(a1-2)Gal(b1-3)[Fuc(a1-4)]GlcNAc(b1-2)Man(a1-3)[Fuc(a1-2)Gal(b1-3)[Fuc(a1-4)]GlcNAc(b1-2)Man(a1-6)]Man(b1-4)GlcNAc(b1-4)GlcNAc
# In short: as §1
# [11] = target: Fuc(a1-2)Gal(b1-3)[Fuc(a1-4)]GlcNAc(b1-3)[Fuc(a1-3)[Gal(b1-4)]GlcNAc(b1-6)]Gal(b1-4)Glc
# In short: as §1
# [12] = target: Fuc(a1-2)Gal(b1-3)[Fuc(a1-4)]GlcNAc(b1-3)[Gal(b1-4)GlcNAc(b1-6)]Gal(b1-4)Glc
# In short: as §1
# Fuc(a1-2)Gal(b1-4)Glc = target: Fuc(a1-2)Gal(b1-4)Glc
# In short: as §1
# Fuc(a1-2)Gal(b1-4)Glc6S = target: Fuc(a1-2)Gal(b1-4)Glc6S
# In short: as §1
# Fuc(a1-2)Gal(b1-4)GlcNAc = target: Fuc(a1-2)Gal(b1-4)GlcNAc
# In short: as §1
# [13] = target: Fuc(a1-2)Gal(b1-4)GlcNAc(b1-2)Man(a1-3)[Fuc(a1-2)Gal(b1-4)GlcNAc(b1-2)Man(a1-6)]Man(b1-4)GlcNAc(b1-4)GlcNAc
# In short: as §1
# [14] = target: Fuc(a1-2)Gal(b1-4)GlcNAc(b1-3)Gal(b1-4)GlcNAc
# In short: as §1
# [15] = target: Fuc(a1-2)Gal(b1-4)GlcNAc(b1-3)Gal(b1-4)GlcNAc(b1-3)Gal(b1-4)GlcNAc
# In short: as §1
# [16] = target: Fuc(a1-2)Gal(b1-4)GlcNAc(b1-3)GalNAc
# In short: as §1
# [17] = target: Fuc(a1-2)Gal(b1-4)GlcNAc6S
# In short: as §1
# [18] = target: Fuc(a1-2)Gal(b1-4)[Fuc(a1-3)]GlcNAc
# In short: as §1
# [19] = target: Fuc(a1-2)Gal(b1-4)[Fuc(a1-3)]GlcNAc(b1-2)Man(a1-3)[Fuc(a1-2)Gal(b1-4)[Fuc(a1-3)]GlcNAc(b1-2)Man(a1-6)]Man(b1-4)GlcNAc(b1-4)GlcNAc
# In short: as §1
# [20] = target: Fuc(a1-2)Gal(b1-4)[Fuc(a1-3)]GlcNAc(b1-3)Gal(b1-4)[Fuc(a1-3)]GlcNAc
# In short: as §1
# [21] = target: Fuc(a1-2)Gal(b1-4)[Fuc(a1-3)]GlcNAc(b1-3)Gal(b1-4)[Fuc(a1-3)]GlcNAc(b1-3)Gal(b1-4)[Fuc(a1-3)]GlcNAc
# In short: as §1
# Fuc(a1-2)Gal6S(b1-4)Glc = target: Fuc(a1-2)Gal6S(b1-4)Glc
# In short: as §1
# [22] = target: Fuc(a1-2)Gal6S(b1-4)Glc6S
# In short: as §1
# [23] = target: Fuc(a1-2)Gal6S(b1-4)GlcNAc
# In short: as §1
binder,measurement,setting,value
B1,glycan array binding signal (z-score),Fuc(a1-2)Gal,0.603
same,glycan array binding signal (z-score),Fuc(a1-2)Gal(b1-3)GalNAc,0.36
same,glycan array binding signal (z-score),[1],-0.705
same,glycan array binding signal (z-score),[2],0.163
same,glycan array binding signal (z-score),[3],1.86
same,glycan array binding signal (z-score),[4],0.811
same,glycan array binding signal (z-score),[5],-0.56
same,glycan array binding signal (z-score),Fuc(a1-2)Gal(b1-3)GlcNAc,-0.439
same,glycan array binding signal (z-score),[6],-0.117
same,glycan array binding signal (z-score),[7],-0.143
same,glycan array binding signal (z-score),[8],-0.921
same,glycan array binding signal (z-score),[9],-0.013
same,glycan array binding signal (z-score),[10],-0.585
same,glycan array binding signal (z-score),[11],-0.134
same,glycan array binding signal (z-score),[12],0.276
same,glycan array binding signal (z-score),Fuc(a1-2)Gal(b1-4)Glc,0.023
same,glycan array binding signal (z-score),Fuc(a1-2)Gal(b1-4)Glc6S,0.034
same,glycan array binding signal (z-score),Fuc(a1-2)Gal(b1-4)GlcNAc,0.092
same,glycan array binding signal (z-score),[13],1.71
same,glycan array binding signal (z-score),[14],-0.493
same,glycan array binding signal (z-score),[15],-0.175
same,glycan array binding signal (z-score),[16],0.033
same,glycan array binding signal (z-score),[17],0.609
same,glycan array binding signal (z-score),[18],0.016
same,glycan array binding signal (z-score),[19],-0.065
same,glycan array binding signal (z-score),[20],-0.608
same,glycan array binding signal (z-score),[21],-0.156
same,glycan array binding signal (z-score),Fuc(a1-2)Gal6S(b1-4)Glc,-0.193
same,glycan array binding signal (z-score),[22],0.998
same,glycan array binding signal (z-score),[23],-0.136

# Some of the entries above, reformatted:
binder	measurement	setting	value
B1	glycan array binding signal (z-score)	[7]	-0.143
same	glycan array binding signal (z-score)	[8]	-0.921
